PubChem BioAssay AID1224830, NIAID, 2016

Assay: 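Regulators of TLR4 signalling towards TNF-alpha in macrophage-like cells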 (primary screen)
Cells: human THP-1 monocytic leukaemia cells, TNF dual-luciferase reporter clone, PMA-differentiated to macrophage-like cells
Reagents: siRNA pool against human genes, 50 nM
Time to read-out: LPS for 4 h, given about 3 days after siRNA transfection
Challenge: bacterial LPS (TLR4 ligand), 10 ng/ml
Measured: 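Ratio of firefly to renilla light, scaled to the plate median and expressed as a robust z-score per replicate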
Scale: TNF reporter robust z-score: higher = stronger TNF reporter response to LPS
Active means: 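Each well counts as active if its z-score is over 2.8 or under -1.5; controls are left without a call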
This is one part, drawn at random, of about 18,000 reagents. About 2,900 of them (16%) count as active. 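Calls are made per well; low scores hint the gene aids the LPS response, high scores that it dampens it.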 Repeated entries: four replicate wells of each siRNA pool.

With SPHAR (retired record), what does the deposit list?
TNF reporter robust z-score: 0.2; activity call: inactive

What is on record for SPHAR (retired record)?
TNF reporter robust z-score: -0.15; activity call: inactive

For SPHAR (retired record), how do the results read?
TNF reporter robust z-score: -0.13; activity call: inactive

For SPHAR (retired record), what does the deposit list?
TNF reporter robust z-score: 0.16; activity call: inactive

Which result is listed for AGGF1?
TNF reporter robust z-score: 1.52; activity call: inactive

What did the screen give for AGGF1?
TNF reporter robust z-score: 0.38; activity call: inactive

Which result is listed for AGGF1?
TNF reporter robust z-score: 0.29; activity call: inactive

Which result is listed for AGGF1?
TNF reporter robust z-score: 2.56; activity call: inactive

How did the screen score OSBPL3?
TNF reporter robust z-score: -0.63; activity call: inactive

For OSBPL3, what was measured?
TNF reporter robust z-score: -0.4; activity call: inactive

For OSBPL3, what was measured?
TNF reporter robust z-score: -0.48; activity call: inactive

What did the screen give for MNX1?
TNF reporter robust z-score: 1.28; activity call: inactive

With MNX1, what does the deposit list?
TNF reporter robust z-score: 1.43; activity call: inactive

What did the screen give for MNX1?
TNF reporter robust z-score: 1.01; activity call: inactive

For MNX1, what was measured?
TNF reporter robust z-score: 2.22; activity call: inactive

With METTL14, how do the results read?
TNF reporter robust z-score: -0.22; activity call: inactive

For METTL14, what does the deposit list?
TNF reporter robust z-score: 2.24; activity call: inactive

With METTL14, what was measured?
TNF reporter robust z-score: 1.07; activity call: inactive

For METTL14, what does the deposit list?
TNF reporter robust z-score: 1.96; activity call: inactive

Which result is listed for CDH20?
TNF reporter robust z-score: -0.59; activity call: inactive

Which result is listed for CDH20?
TNF reporter robust z-score: -0.04; activity call: inactive

For CDH20, how do the results read?
TNF reporter robust z-score: -1.17; activity call: inactive

What did the screen give for CDH20?
TNF reporter robust z-score: -0.41; activity call: inactive

How did the screen score NT5DC1?
TNF reporter robust z-score: 0.59; activity call: inactive

With NT5DC1, what does the deposit list?
TNF reporter robust z-score: -0.87; activity call: inactive

What did the screen give for NT5DC1?
TNF reporter robust z-score: 0.31; activity call: inactive

With NT5DC1, what does the deposit list?
TNF reporter robust z-score: 1.28; activity call: inactive

For AQP11, how do the results read?
TNF reporter robust z-score: 0.29; activity call: inactive

With AQP11, how do the results read?
TNF reporter robust z-score: -0.52; activity call: inactive

What did the screen give for AQP11?
TNF reporter robust z-score: 0.07; activity call: inactive

With PLA2G5, what does the deposit list?
TNF reporter robust z-score: -1.12; activity call: inactive

What did the screen give for PLA2G5?
TNF reporter robust z-score: 0.26; activity call: inactive

What is on record for PLA2G5?
TNF reporter robust z-score: -0.59; activity call: inactive

Which result is listed for PLA2G5?
TNF reporter robust z-score: -0.7; activity call: inactive

With SIRT6, what does the deposit list?
TNF reporter robust z-score: -0.59; activity call: inactive

What is on record for SIRT6?
TNF reporter robust z-score: -0.26; activity call: inactive

For SIRT6, how do the results read?
TNF reporter robust z-score: -0.31; activity call: inactive

What is on record for SIRT6?
TNF reporter robust z-score: 0.49; activity call: inactive

How did the screen score TNFRSF8?
TNF reporter robust z-score: 0.88; activity call: inactive

What is on record for TNFRSF8?
TNF reporter robust z-score: -1.67; activity call: active

Which result is listed for TNFRSF8?
TNF reporter robust z-score: -1.68; activity call: active

With TNFRSF8, how do the results read?
TNF reporter robust z-score: 1.07; activity call: inactive

What did the screen give for SIGLEC8?
TNF reporter robust z-score: 2.39; activity call: inactive

For SIGLEC8, how do the results read?
TNF reporter robust z-score: 0.04; activity call: inactive

For SIGLEC8, what does the deposit list?
TNF reporter robust z-score: 4.16; activity call: active

What is on record for SIGLEC8?
TNF reporter robust z-score: 8.4; activity call: active

With GCOM1, what was measured?
TNF reporter robust z-score: 0.41; activity call: inactive

What is on record for GCOM1?
TNF reporter robust z-score: -0.54; activity call: inactive

What is on record for GCOM1?
TNF reporter robust z-score: -0.03; activity call: inactive

What is on record for GCOM1?
TNF reporter robust z-score: -0.51; activity call: inactive

With KCNK2, how do the results read?
TNF reporter robust z-score: 2.2; activity call: inactive

With KCNK2, how do the results read?
TNF reporter robust z-score: 2.83; activity call: active

For KCNK2, what was measured?
TNF reporter robust z-score: -0.64; activity call: inactive

With KCNK2, how do the results read?
TNF reporter robust z-score: 3.06; activity call: active

Which result is listed for RIPK3?
TNF reporter robust z-score: 1.45; activity call: inactive

With RIPK3, how do the results read?
TNF reporter robust z-score: 3.06; activity call: active

With RIPK3, what does the deposit list?
TNF reporter robust z-score: 1.38; activity call: inactive

How did the screen score RIPK3?
TNF reporter robust z-score: -0.62; activity call: inactive

For LILRA5, how do the results read?
TNF reporter robust z-score: -0.67; activity call: inactive

Which result is listed for LILRA5?
TNF reporter robust z-score: -0.62; activity call: inactive

For LILRA5, how do the results read?
TNF reporter robust z-score: -1.05; activity call: inactive

Which result is listed for LILRA5?
TNF reporter robust z-score: -1.11; activity call: inactive

Ordered by “TNF reporter robust z-score” (descending): some entries from above.
SIRT6 | TNF reporter robust z-score: 0.49; activity call: inactive
PLA2G5 | TNF reporter robust z-score: 0.26; activity call: inactive
AQP11 | TNF reporter robust z-score: 0.07; activity call: inactive
SIRT6 | TNF reporter robust z-score: -0.26; activity call: inactive
SIRT6 | TNF reporter robust z-score: -0.31; activity call: inactive
PLA2G5 | TNF reporter robust z-score: -0.59; activity call: inactive
SIRT6 | TNF reporter robust z-score: -0.59; activity call: inactive
PLA2G5 | TNF reporter robust z-score: -0.7; activity call: inactive
PLA2G5 | TNF reporter robust z-score: -1.12; activity call: inactive
